Literature values in patent US8263575B2, “Phosphoramidate derivatives of nucleoside compounds for use in the treatment of cancer” (Nucana Biomed Limited, priority 2005, dated 2012).
At least one compound was matched to its structure with a doubt left.

Conditions: cited from earlier work

Compound: Nc1nc(Cl)c2ncn([C@@H]3C[C@H](O)[C@@H](CO)O3)c2n1 [isocladribine]
- activity of isocladribine as known: inactive
